Experimental findings from PMC12702018 are described below.

The chains behind the UniProt entries cited, without tags or fusion partners. Where a name states a change or a piece, a line headed by the entry shows the natural chain unless it says otherwise. A line that says so, or that is headed by a name, gives the form on record, which may keep a tag or linker.
UniProt Q5UIP0: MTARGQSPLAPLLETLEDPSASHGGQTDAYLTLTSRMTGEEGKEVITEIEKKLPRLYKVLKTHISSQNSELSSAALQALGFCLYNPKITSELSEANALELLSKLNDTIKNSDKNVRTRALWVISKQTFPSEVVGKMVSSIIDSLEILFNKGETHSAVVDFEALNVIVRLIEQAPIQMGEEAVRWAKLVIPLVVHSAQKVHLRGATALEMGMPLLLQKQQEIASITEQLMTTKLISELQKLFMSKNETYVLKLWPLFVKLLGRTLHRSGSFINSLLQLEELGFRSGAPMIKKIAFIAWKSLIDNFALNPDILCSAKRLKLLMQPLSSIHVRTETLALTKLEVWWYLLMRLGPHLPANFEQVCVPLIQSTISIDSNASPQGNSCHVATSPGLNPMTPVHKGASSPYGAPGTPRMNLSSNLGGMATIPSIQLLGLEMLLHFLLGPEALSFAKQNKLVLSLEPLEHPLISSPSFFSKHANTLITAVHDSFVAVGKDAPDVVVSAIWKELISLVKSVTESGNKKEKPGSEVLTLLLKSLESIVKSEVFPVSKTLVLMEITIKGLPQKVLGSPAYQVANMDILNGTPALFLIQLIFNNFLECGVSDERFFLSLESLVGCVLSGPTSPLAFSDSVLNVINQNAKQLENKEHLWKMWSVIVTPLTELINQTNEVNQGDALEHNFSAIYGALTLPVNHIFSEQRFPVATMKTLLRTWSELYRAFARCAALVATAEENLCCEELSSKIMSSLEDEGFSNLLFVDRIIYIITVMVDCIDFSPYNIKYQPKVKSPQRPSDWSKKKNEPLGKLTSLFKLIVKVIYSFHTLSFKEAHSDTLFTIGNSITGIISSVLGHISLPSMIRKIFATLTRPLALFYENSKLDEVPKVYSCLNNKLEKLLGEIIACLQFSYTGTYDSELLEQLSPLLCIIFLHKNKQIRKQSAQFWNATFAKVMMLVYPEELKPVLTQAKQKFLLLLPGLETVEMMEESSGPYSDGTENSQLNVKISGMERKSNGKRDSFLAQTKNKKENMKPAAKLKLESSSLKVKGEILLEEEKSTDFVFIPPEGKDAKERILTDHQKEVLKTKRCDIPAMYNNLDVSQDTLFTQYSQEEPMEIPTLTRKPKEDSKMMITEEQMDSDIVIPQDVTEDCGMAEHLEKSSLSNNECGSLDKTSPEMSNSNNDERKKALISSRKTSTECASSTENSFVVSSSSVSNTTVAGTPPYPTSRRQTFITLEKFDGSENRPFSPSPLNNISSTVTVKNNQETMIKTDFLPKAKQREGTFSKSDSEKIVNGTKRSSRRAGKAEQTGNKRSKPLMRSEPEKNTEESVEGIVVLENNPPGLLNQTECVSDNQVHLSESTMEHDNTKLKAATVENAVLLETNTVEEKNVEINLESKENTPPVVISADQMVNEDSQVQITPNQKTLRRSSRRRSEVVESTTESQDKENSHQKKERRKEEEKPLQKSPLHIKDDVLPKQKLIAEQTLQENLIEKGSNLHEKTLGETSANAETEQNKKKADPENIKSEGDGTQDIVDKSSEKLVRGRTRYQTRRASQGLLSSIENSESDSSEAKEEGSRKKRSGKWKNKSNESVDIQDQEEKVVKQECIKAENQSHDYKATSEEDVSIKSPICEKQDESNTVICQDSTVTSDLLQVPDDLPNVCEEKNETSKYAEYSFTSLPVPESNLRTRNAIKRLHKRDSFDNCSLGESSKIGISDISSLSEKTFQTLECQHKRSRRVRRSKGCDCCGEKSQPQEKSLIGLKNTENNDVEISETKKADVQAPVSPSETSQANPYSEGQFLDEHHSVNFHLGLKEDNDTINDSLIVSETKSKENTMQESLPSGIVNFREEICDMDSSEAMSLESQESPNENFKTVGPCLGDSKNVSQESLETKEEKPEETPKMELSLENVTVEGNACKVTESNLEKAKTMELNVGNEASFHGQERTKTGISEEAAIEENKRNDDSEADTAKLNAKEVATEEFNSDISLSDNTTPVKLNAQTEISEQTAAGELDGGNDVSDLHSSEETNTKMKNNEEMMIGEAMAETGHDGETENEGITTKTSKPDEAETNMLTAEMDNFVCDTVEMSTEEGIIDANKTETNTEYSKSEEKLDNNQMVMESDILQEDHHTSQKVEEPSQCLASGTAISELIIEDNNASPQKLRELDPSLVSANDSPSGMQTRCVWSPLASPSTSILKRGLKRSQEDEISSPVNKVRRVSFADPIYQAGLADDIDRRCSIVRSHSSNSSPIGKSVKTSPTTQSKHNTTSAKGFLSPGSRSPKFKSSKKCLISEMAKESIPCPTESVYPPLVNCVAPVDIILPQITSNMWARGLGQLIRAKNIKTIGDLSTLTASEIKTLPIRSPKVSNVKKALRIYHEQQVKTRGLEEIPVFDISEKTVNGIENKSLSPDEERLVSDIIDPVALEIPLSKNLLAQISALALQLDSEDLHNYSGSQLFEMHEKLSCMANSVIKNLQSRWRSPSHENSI
GFP-RIF1-S (GFP-tagged full-length RIF1-Short, RAP1 interacting factor 1) (Q5UIP0, form named): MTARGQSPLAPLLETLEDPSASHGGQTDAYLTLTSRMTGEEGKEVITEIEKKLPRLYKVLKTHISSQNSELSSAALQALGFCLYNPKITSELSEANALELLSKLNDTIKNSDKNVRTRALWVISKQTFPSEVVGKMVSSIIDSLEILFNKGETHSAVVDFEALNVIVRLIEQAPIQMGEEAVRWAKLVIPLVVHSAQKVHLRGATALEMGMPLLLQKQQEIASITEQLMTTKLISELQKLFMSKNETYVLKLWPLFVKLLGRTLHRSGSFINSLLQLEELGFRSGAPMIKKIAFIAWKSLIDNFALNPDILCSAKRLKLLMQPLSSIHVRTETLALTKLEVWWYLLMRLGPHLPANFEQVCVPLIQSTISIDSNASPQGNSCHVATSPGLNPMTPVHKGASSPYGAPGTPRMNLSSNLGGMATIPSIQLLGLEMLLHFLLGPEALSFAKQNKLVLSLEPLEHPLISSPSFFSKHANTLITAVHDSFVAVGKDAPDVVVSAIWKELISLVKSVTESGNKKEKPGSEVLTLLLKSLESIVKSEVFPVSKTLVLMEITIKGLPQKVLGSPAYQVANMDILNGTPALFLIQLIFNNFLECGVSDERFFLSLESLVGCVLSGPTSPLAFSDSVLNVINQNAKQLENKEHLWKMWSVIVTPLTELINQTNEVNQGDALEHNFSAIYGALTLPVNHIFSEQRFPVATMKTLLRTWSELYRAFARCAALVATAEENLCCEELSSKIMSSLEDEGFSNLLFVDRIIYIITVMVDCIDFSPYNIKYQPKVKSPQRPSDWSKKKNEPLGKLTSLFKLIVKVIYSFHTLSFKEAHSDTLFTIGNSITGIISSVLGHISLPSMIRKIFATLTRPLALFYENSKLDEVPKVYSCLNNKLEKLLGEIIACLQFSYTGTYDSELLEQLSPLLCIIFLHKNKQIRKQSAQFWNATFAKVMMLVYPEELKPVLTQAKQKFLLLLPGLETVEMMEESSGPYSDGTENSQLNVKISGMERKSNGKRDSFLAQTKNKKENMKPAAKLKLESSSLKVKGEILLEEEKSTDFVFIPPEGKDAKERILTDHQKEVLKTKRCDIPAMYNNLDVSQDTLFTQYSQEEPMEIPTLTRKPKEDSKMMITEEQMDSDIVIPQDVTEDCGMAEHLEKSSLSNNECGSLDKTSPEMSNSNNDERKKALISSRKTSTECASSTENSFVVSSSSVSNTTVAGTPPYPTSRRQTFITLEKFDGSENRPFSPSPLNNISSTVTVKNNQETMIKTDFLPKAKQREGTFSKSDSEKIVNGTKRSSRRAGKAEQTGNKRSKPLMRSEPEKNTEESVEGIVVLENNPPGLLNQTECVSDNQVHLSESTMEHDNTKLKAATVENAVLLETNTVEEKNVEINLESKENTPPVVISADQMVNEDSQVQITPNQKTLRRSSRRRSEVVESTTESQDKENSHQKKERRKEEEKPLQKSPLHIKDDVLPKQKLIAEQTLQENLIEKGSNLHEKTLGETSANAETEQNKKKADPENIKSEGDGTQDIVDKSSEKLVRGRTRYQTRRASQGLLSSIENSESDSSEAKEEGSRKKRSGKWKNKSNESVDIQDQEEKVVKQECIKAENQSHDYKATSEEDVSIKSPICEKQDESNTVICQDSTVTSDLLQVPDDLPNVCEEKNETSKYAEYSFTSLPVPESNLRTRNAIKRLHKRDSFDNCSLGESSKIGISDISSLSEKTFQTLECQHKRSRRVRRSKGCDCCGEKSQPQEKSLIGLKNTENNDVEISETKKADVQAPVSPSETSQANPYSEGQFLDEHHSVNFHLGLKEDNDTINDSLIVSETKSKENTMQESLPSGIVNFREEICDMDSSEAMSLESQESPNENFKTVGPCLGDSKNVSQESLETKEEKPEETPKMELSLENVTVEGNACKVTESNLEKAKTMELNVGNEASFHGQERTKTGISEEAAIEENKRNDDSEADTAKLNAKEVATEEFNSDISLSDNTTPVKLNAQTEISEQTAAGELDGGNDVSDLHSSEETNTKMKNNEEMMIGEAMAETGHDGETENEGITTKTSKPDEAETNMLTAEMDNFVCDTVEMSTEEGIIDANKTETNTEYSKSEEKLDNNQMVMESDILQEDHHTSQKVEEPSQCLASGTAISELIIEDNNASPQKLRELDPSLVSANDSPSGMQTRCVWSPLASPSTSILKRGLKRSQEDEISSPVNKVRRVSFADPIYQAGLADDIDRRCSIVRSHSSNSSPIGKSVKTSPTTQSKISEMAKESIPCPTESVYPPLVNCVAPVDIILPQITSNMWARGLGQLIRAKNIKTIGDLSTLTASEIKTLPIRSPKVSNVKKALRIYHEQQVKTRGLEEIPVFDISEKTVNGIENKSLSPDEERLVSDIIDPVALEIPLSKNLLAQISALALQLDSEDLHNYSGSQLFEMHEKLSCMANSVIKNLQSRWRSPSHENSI
UniProt Q9BUH6: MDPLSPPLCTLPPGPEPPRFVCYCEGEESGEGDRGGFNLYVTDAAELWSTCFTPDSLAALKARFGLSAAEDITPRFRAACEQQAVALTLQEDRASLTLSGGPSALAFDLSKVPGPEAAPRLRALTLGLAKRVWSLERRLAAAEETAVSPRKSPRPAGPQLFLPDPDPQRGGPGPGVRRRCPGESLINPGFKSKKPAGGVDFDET
UniProt Q9Y294: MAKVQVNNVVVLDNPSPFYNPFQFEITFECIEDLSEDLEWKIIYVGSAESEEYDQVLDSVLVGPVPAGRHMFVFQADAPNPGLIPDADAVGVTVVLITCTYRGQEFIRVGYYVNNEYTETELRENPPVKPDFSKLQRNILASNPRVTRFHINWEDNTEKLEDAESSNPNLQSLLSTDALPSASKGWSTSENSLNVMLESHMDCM
UniProt Q12834: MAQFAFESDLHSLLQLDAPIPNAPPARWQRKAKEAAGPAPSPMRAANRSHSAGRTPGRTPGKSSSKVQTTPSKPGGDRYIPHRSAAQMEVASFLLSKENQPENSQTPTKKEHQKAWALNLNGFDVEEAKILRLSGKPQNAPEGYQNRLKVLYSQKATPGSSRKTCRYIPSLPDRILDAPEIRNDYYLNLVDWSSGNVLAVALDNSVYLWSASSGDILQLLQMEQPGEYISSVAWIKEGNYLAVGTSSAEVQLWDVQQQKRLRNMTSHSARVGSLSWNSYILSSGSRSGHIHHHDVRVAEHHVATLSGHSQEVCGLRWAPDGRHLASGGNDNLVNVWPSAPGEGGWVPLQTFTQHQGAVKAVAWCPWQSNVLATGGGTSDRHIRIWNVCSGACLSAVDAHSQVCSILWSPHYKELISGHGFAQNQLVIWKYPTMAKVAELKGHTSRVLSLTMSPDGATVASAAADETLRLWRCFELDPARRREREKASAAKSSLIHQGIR
UniProt Q9ULW0: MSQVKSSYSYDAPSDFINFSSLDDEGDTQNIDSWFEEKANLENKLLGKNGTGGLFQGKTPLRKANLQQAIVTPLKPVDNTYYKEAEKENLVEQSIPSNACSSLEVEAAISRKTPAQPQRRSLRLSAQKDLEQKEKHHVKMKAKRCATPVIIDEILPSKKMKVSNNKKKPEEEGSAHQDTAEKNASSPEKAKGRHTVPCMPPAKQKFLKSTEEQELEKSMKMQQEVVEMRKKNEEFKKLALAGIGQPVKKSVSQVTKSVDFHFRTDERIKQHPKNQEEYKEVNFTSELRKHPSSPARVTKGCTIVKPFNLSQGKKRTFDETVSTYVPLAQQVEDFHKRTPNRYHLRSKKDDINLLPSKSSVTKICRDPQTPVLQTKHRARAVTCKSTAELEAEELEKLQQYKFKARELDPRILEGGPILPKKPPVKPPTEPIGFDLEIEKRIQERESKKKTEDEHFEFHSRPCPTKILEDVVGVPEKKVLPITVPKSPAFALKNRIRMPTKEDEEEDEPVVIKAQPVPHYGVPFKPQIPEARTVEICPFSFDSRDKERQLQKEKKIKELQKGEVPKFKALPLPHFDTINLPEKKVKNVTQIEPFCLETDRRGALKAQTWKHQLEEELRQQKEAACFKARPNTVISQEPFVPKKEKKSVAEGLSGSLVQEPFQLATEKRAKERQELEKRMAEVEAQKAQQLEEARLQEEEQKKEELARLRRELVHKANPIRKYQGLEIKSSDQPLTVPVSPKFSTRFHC

Results are given in words; binding and its absence hold for the method and conditions named. In cells and extracts the contact can be indirect. These calls come from enrichment with a bait or labelling near it, and not all partners need be listed.

The target in assay [1] is GFP-RIF1-L (GFP-tagged full-length RIF1-Long, RAP1 interacting factor 1) (human) (UniProt Q5UIP0). The assay is described as follows: affinity purification with mass spectrometry; RIME: cells fixed with 1% formaldehyde for 8 min, nuclei digested with benzonase, GFP-RIF1 captured on GFP-Trap magnetic agarose beads, washed with RIPA buffer (0.5 M LiCl), on-bead trypsin digest, label-free quantitative LC-MS/MS; enrichment against GFP control IPs at FDR < 0.05.

In assay [2] the target is GFP-RIF1-S (GFP-tagged full-length RIF1-Short, RAP1 interacting factor 1) (human) (UniProt Q5UIP0). The description is as above.

“Claspin (CLSPN) (from UniProt Q9HAW4 1-1339)”: the binding entry in assay [1] and in assay [2] was “binds” in each case.

On to “PAXX (paralog of XRCC4 and XLF) (from UniProt Q9BUH6 1-204)”, for which the binding entry in assay [2] is “binds”. Consider “anti-silencing function 1A histone chaperone ASF1A (from UniProt Q9Y294 1-204)”, for which the binding result in assay [1] and in assay [2] was “binds” each time. “cell division cycle 20 (CDC20) (from UniProt Q12834 1-499)”: the binding result in assay [1] and in assay [2] was “binds” in each case. With “centromere protein F (CENPF) (from UniProt P49454 1-3114)”, the binding entry in assay [1] and in assay [2] was “binds” each time. As to “mediator of DNA damage checkpoint 1 (MDC1) (from UniProt Q14676 1-2089)”, in assay [1], the binding entry is given as “binds”. Consider “microtubule nucleation factor TPX2 (from UniProt Q9ULW0 1-747)”, for which the binding result in assay [1] and in assay [2] was “binds” in each case. On to “nuclear import receptor karyopherin α 3 (KPNA3) (from UniProt O00505 1-521)”, for which the binding entry in assay [1] is “binds”.

Consider “tumor protein p53 binding protein 1 (53BP1) (from UniProt Q12888 1-1972)”, for which, in assay [2], the binding result is given as “binds”.

B1: kinesin family member 23 (KIF23) (protein, UniProt Q02241 1-960)
chain: MKSARAKTPRKPTVKKGSQTNLKDPVGVYCRVRPLGFPDQECCIEVINNTTVQLHTPEGYRLNRNGDYKETQYSFKQVFGTHTTQKELFDVVANPLVNDLIHGKNGLLFTYGVTGSGKTHTMTGSPGEGGLLPRCLDMIFNSIGSFQAKRYVFKSNDRNSMDIQCEVDALLERQKREAMPNPKTSSSKRQVDPEFADMITVQEFCKAEEVDEDSVYGVFVSYIEIYNNYIYDLLEEVPFDPIKPKPPQSKLLREDKNHNMYVAGCTEVEVKSTEEAFEVFWRGQKKRRIANTHLNRESSRSHSVFNIKLVQAPLDADGDNVLQEKEQITISQLSLVDLAGSERTNRTRAEGNRLREAGNINQSLMTLRTCMDVLRENQMYGTNKMVPYRDSKLTHLFKNYFDGEGKVRMIVCVNPKAEDYEENLQVMRFAEVTQEVEVARPVDKAICGLTPGRRYRNQPRGPVGNEPLVTDVVLQSFPPLPSCEILDINDEQTLPRLIEALEKRHNLRQMMIDEFNKQSNAFKALLQEFDNAVLSKENHMQGKLNEKEKMISGQKLEIERLEKKNKTLEYKIEILEKTTTIYEEDKRNLQQELETQNQKLQRQFSDKRRLEARLQGMVTETTMKWEKECERRVAAKQLEMQNKLWVKDEKLKQLKAIVTEPKTEKPERPSRERDREKVTQRSVSPSPVPLSSNYIAQISNGQQLMSQPQLHRRSNSCSSISVASCISEWEQKIPTYNTPLKVTSIARRRQQEPGQSKTCIVSDRRRGMYWTEGREVVPTFRNEIEIEEDHCGRLLFQPDQNAPPIRLRHRRSRSAGDRWVDHKPASNMQTETVMQPHVPHAITVSVANEKALAKCEKYMLTHQELASDGEIETKLIKGDIYKTRGGGQSVQFTDIETLKQESPNGSRKRRSSTVAPAQPDGAESEWTDVETRCSVAVEMRAGSQLGPGYQHHAQPKRKKP
B1: the binding result in assay [1] and in assay [2] was “binds” in each case.

B2: kinesin family member 4A (KIF4A) (protein, UniProt O95239 1-1232)
chain: MKEEVKGIPVRVALRCRPLVPKEISEGCQMCLSFVPGEPQVVVGTDKSFTYDFVFDPSTEQEEVFNTAVAPLIKGVFKGYNATVLAYGQTGSGKTYSMGGAYTAEQENEPTVGVIPRVIQLLFKEIDKKSDFEFTLKVSYLEIYNEEILDLLCPSREKAQINIREDPKEGIKIVGLTEKTVLVALDTVSCLEQGNNSRTVASTAMNSQSSRSHAIFTISLEQRKKSDKNSSFRSKLHLVDLAGSERQKKTKAEGDRLKEGININRGLLCLGNVISALGDDKKGGFVPYRDSKLTRLLQDSLGGNSHTLMIACVSPADSNLEETLNTLRYADRARKIKNKPIVNIDPQTAELNHLKQQVQQLQVLLLQAHGGTLPGSITVEPSENLQSLMEKNQSLVEENEKLSRGLSEAAGQTAQMLERIILTEQANEKMNAKLEELRQHAACKLDLQKLVETLEDQELKENVEIICNLQQLITQLSDETVACMAAAIDTAVEQEAQVETSPETSRSSDAFTTQHALRQAQMSKELVELNKALALKEALARKMTQNDSQLQPIQYQYQDNIKELELEVINLQKEKEELVLELQTAKKDANQAKLSERRRKRLQELEGQIADLKKKLNEQSKLLKLKESTERTVSKLNQEIRMMKNQRVQLMRQMKEDAEKFRQWKQKKDKEVIQLKERDRKRQYELLKLERNFQKQSNVLRRKTEEAAAANKRLKDALQKQREVADKRKETQSRGMEGTAARVKNWLGNEIEVMVSTEEAKRHLNDLLEDRKILAQDVAQLKEKKESGENPPPKLRRRTFSLTEVRGQVSESEDSITKQIESLETEMEFRSAQIADLQQKLLDAESEDRPKQRWENIATILEAKCALKYLIGELVSSKIQVSKLESSLKQSKTSCADMQKMLFEERNHFAEIETELQAELVRMEQQHQEKVLYLLSQLQQSQMAEKQLEESVSEKEQQLLSTLKCQDEELEKMREVCEQNQQLLRENEIIKQKLTLLQVASRQKHLPKDTLLSPDSSFEYVPPKPKPSRVKEKFLEQSMDIEDLKYCSEHSVNEHEDGDGDDDEGDDEEWKPTKLVKVSRKNIQGCSCKGWCGNKQCGCRKQKSDCGVDCCCDPTKCRNRQQGKDSLGTVERTQDSEGSFKLEDPTEVTPGLSFFNPVCATPNSKILKEMCDVEQVLSKKTPPAPSPFDLPELKHVATEYQENKAPGKKKKRALASNTSFFSGCSPIEEEAH
In the case of B2, the binding entry in assay [1] and in assay [2] was “binds” in each case.
